Results are given in words; binding and its absence hold for the method and conditions named. In cells and extracts the contact can be indirect. Some entries that bind do so weakly or less than the wild type. Tags and fused reporters may be left off the sequences shown.
Molecular target: T1, Flag-tagged Chk1 (UniProt O14757)
T1 sequence: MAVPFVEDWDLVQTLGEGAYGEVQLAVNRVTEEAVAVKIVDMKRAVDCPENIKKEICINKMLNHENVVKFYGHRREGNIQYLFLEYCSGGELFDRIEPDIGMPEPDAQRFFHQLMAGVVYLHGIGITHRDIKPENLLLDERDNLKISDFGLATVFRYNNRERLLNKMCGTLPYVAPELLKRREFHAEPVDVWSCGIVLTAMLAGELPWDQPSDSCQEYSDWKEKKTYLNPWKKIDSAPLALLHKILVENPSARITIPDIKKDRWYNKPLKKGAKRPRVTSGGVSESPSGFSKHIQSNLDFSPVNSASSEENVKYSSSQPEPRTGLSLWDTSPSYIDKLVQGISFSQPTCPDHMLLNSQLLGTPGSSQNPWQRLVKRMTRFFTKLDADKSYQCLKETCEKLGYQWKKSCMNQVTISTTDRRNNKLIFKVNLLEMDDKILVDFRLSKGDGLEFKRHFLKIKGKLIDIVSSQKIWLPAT
Experiment: co-IP; Flag-Chk1 and HA-HDAC6 co-transfected into 293T cells, 48 h; lysates incubated with HA-coated or Flag-coated agarose beads; blot probed for the reciprocal tag

Sequences of proteins named here, by UniProt entry; tags and fusion partners are left off.
UniProt Q9UBN7: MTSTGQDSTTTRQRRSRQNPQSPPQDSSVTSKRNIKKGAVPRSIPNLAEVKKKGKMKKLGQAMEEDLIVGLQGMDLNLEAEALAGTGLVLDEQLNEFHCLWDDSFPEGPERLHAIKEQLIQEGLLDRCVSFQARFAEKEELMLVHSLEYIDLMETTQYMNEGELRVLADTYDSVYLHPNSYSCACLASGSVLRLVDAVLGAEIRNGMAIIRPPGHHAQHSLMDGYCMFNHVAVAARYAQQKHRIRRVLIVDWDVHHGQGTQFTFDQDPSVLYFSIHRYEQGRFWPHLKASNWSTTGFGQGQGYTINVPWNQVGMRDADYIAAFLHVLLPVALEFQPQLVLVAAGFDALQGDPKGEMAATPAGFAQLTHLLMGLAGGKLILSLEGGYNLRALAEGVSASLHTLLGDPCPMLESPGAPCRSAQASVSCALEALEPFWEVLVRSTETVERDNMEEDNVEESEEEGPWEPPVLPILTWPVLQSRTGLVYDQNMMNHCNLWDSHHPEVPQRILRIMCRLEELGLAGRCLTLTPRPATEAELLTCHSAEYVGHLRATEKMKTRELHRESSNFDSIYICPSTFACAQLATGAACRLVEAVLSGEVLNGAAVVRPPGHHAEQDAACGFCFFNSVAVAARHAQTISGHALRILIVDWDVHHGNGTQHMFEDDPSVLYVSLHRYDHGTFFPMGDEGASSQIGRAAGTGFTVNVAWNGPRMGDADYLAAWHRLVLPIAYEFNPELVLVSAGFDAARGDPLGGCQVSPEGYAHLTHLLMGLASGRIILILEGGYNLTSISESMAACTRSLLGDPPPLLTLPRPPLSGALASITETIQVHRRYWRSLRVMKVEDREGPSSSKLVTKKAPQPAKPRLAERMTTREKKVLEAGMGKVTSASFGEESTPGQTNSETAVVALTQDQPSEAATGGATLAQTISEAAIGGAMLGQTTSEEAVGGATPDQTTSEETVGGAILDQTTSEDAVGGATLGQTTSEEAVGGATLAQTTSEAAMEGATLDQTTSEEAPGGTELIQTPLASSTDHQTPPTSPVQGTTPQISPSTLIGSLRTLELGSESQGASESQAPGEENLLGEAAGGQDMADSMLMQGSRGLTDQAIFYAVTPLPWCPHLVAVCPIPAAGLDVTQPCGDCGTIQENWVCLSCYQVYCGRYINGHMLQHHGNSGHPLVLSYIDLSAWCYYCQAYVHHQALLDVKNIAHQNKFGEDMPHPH

- binding: binds
Substance: HA-tagged HDAC6 (from UniProt Q9UBN7 1-1215)

Source: article PMC7600810
